Measurements reported in PubChem BioAssay AID493246 (Drosophila RNAi Screening Center, 2011).
Purpose: 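Genome-wide search for dsRNAs that reduce cell number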 (primary screen). System: Drosophila Kc and S2R+ cells. Reagent: long dsRNA against Drosophila genes. Read-out: 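Cell number per well after knock-down, printed as raw plate values; calls were based on per-plate z-scores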. Direction: Kc cell number and S2R+ cell number: higher = more cells remaining. Hit rule: 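Counted as a hit if cell number falls by a z-score of at least 3 within its plate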.
In all, the deposit lists about 21,000 reagents; shown is an unselected part of those with a known target gene and a result. Over the whole deposit, 429 (2%) are marked active. 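Values are raw and not normalised between plates; calls rest on per-plate z-scores that were not deposited.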 Names joined by + are all predicted targets of the reagent. Reagent sequences are not shown. Not stated in the record: the amount of reagent, the time to read-out.

predicted target | dsRNA | Kc cell number, rep 1 | Kc cell number, rep 2 | S2R+ cell number, rep 1 | S2R+ cell number, rep 2 | outcome
sunz (GeneID 40811) | DRSC12559 | 1.40e6 | 1.56e6 | 1.21e6 | 1.25e6 | inactive
Usp5 (GeneID 38375) | DRSC08244 | 1.63e6 | 1.51e6 | 1.10e6 | 1.34e6 | inactive
CG43317 (GeneID 41916) | DRSC15000 | 1.29e6 | 1.32e6 | 1.14e6 | 1.30e6 | inactive
HP1c (GeneID 42696) | DRSC16166 | 1.55e6 | 1.42e6 | 1.13e6 | 1.21e6 | inactive
Arfip (GeneID 41353) | DRSC15179 | 1.49e6 | 1.55e6 | 1.15e6 | 1.19e6 | inactive
CG16995 (GeneID 33413) | DRSC00480 | 1.53e6 | 1.54e6 | 1.05e6 | 1.12e6 | inactive
CG13054 (GeneID 39780) | DRSC09935 | 1.35e6 | 1.43e6 | 1.31e6 | 1.41e6 | inactive
t (GeneID 31863) | DRSC17815 | 1.60e6 | 1.51e6 | 1.02e6 | 1.18e6 | inactive
CG9970 (GeneID 38351) | DRSC08644 | 1.58e6 | 1.43e6 | 1.08e6 | 1.19e6 | inactive
CG9586 (GeneID 34241) | DRSC03270 | 1.61e6 | 1.62e6 | 1.18e6 | 1.27e6 | inactive
elgi (GeneID 39735) | DRSC10242 | 1.54e6 | 1.54e6 | 1.31e6 | 1.33e6 | inactive
CG10801 (GeneID 31314) | DRSC17761 | 1.52e6 | 1.57e6 | 1.09e6 | 1.29e6 | inactive
mael (GeneID 40489) | DRSC11894 | 1.47e6 | 1.54e6 | 1.18e6 | 1.24e6 | inactive
CG8483 (GeneID 41623) | DRSC16430 | 1.58e6 | 1.62e6 | 1.40e6 | 1.50e6 | inactive
CG42674 (GeneID 40205) | DRSC10067 | 1.65e6 | 1.85e6 | 1.22e6 | 1.36e6 | inactive
CG42674 (GeneID 40205) | DRSC10811 | 1.75e6 | 1.68e6 | 1.41e6 | 1.57e6 | inactive
CG31183 (GeneID 41927) | DRSC14403 | 1.38e6 | 1.37e6 | 1.10e6 | 1.19e6 | inactive
CG31183 (GeneID 41927) | DRSC15554 | 1.57e6 | 1.67e6 | 1.18e6 | 1.26e6 | inactive
aus (GeneID 42531) | DRSC13471 | 1.51e6 | 1.54e6 | 1.05e6 | 1.18e6 | inactive
aus (GeneID 42531) | DRSC13473 | 1.40e6 | 1.40e6 | 1.06e6 | 1.12e6 | inactive
aus (GeneID 42531) | DRSC15157 | 1.65e6 | 1.75e6 | 1.32e6 | 1.37e6 | inactive
prtp (GeneID 32124) | DRSC19804 | 1.28e6 | 1.43e6 | 1.04e6 | 1.15e6 | inactive
salr (GeneID 34568) | DRSC03607 | 1.82e6 | 1.87e6 | 1.23e6 | 1.32e6 | inactive
Gcn2 (GeneID 43709) | DRSC16678 | 4.68e5 | – | 8.38e5 | – | inactive
Obp99c (GeneID 43494) | DRSC16262 | 1.77e6 | 1.78e6 | 1.03e6 | 1.16e6 | inactive
CG31544 (retired record) (GeneID 318792) | DRSC12466 | 1.59e6 | 1.55e6 | 1.09e6 | 1.35e6 | inactive
CG15547 (GeneID 43661) | DRSC15085 | 1.65e6 | 1.71e6 | 1.06e6 | 1.18e6 | inactive
Dfd (GeneID 40832) | DRSC12593 | 1.34e6 | 1.46e6 | 1.37e6 | 1.48e6 | inactive
intr (GeneID 43397) | DRSC14528 | 5.71e5 | – | 8.54e5 | – | inactive
CG4269 (GeneID 37578) | DRSC04457 | 1.58e6 | 1.63e6 | 1.26e6 | 1.39e6 | inactive
wg (GeneID 34009) | DRSC03636 | 1.63e6 | 1.68e6 | 1.28e6 | 1.44e6 | inactive
Nup93-2 (GeneID 41804) | DRSC16221 | 1.43e6 | 1.45e6 | 1.18e6 | 1.26e6 | inactive
gukh (GeneID 53563) | DRSC14768 | 1.45e6 | 1.45e6 | 1.07e6 | 1.13e6 | inactive
gukh (GeneID 53563) | DRSC15806 | 1.45e6 | 1.50e6 | 1.08e6 | 1.15e6 | inactive
gukh (GeneID 53563) | DRSC15944 | 1.47e6 | 1.62e6 | 1.08e6 | 1.22e6 | inactive
Cyp4p1 (GeneID 45524) | DRSC07372 | 1.73e6 | 1.77e6 | 1.39e6 | 1.58e6 | inactive
fabp + sea | DRSC16114 | 1.48e6 | 1.52e6 | 1.28e6 | 1.30e6 | inactive
fabp + sea | DRSC16115 | 1.45e6 | 1.51e6 | 1.31e6 | 1.33e6 | inactive
CG6262 (GeneID 36833) | DRSC06971 | 1.37e6 | 1.46e6 | 7.54e5 | 8.90e5 | inactive
CG12288 (GeneID 35027) | DRSC02155 | 1.55e6 | 1.60e6 | 1.19e6 | 1.33e6 | inactive
Mad1 (GeneID 35954) | DRSC07561 | 1.39e6 | 1.49e6 | 1.02e6 | 1.02e6 | inactive
CG32450 (GeneID 318034) | DRSC11546 | 1.43e6 | 1.51e6 | 1.11e6 | 1.27e6 | inactive
CG13041 (GeneID 39801) | DRSC09922 | 1.57e6 | 1.58e6 | 1.24e6 | 1.42e6 | inactive
CG13155 (GeneID 36346) | DRSC06280 | 1.53e6 | 1.56e6 | 1.19e6 | 1.32e6 | inactive
CG14326 (GeneID 42120) | DRSC14805 | 1.36e6 | 1.44e6 | 1.02e6 | 1.06e6 | inactive
CG31798 (GeneID 318946) | DRSC01702 | 1.49e6 | 1.56e6 | 9.66e5 | 1.15e6 | inactive
mamo (GeneID 32353) | DRSC19370 | 1.75e6 | 1.74e6 | 1.01e6 | 1.15e6 | inactive
CG30457 (GeneID 36940) | DRSC06661 | 1.56e6 | 1.62e6 | 1.12e6 | 1.22e6 | inactive
schlank (GeneID 50392) | DRSC18102 | 1.63e6 | 1.64e6 | 1.01e6 | 1.14e6 | inactive
schlank (GeneID 50392) | DRSC18313 | 1.58e6 | 1.52e6 | 1.06e6 | 1.11e6 | inactive
CG1971 (GeneID 43755) | DRSC15406 | 5.18e5 | – | 7.72e5 | – | inactive
Or67d (GeneID 39191) | DRSC10158 | 1.62e6 | 1.74e6 | 1.20e6 | 1.32e6 | inactive
Cyp49a1 (GeneID 36105) | DRSC06737 | 1.62e6 | 1.73e6 | 1.33e6 | 1.46e6 | inactive
Cyp49a1 (GeneID 36105) | DRSC07367 | 1.55e6 | 1.57e6 | 1.29e6 | 1.35e6 | inactive
pHCl-1 (GeneID 39730) | DRSC09401 | 1.36e6 | 1.57e6 | 1.15e6 | 1.24e6 | inactive
pHCl-1 (GeneID 39730) | DRSC09991 | 1.35e6 | 1.59e6 | 1.37e6 | 1.45e6 | inactive
pHCl-1 (GeneID 39730) | DRSC10589 | 1.30e6 | 1.49e6 | 1.38e6 | 1.48e6 | inactive
Cad88C (GeneID 41774) | DRSC15486 | 1.33e6 | 1.35e6 | 1.11e6 | 1.22e6 | inactive
cerv (GeneID 32492) | DRSC19681 | 1.40e6 | 1.44e6 | 1.02e6 | 1.11e6 | inactive
